Experimental data: PubChem BioAssay AID1794845 (National Center for Advancing Translational Sciences (NCATS), 2023)
Hit rate of the full screen: of about 6,900 compounds, fewer than 10 were called active. Calls come from the whole dose curve; as a rule, active = well fitted curve in the direction sought with a large enough effect; inconclusive = small, poorly fitted or top-dose-only effect, or another doubt; inactive = no such curve, though single readings can be large or run the other way. The list shows a part of the results.

Protein sequences, listed by entry. Tags and fused reporters are not part of them. Lines headed by an entry give the natural chain unless they say otherwise; changes in a name come on top.
UniProt C7C422: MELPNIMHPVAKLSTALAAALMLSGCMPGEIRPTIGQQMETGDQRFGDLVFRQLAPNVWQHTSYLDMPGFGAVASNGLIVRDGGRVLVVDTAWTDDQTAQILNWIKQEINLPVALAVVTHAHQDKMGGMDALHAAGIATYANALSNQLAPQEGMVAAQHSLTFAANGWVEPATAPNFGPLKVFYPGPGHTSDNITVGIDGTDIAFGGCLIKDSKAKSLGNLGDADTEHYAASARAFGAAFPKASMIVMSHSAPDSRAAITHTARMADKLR

Target: Metallo-beta-lactamase type 2 (Klebsiella pneumoniae) (UniProt C7C422)
Experiment: qHTS to identify inhibitors of the New Delhi Metallo-beta-lactamase (NDM): primary screen against the NCATS Gemini Collection; note: % of control where 0% means no effect
Details: NDM-1 enzyme, meropenem hydrolysis, absorbance 300 nm; at 38.4 µM (top of the series) unless noted
In short: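 Meropenem hydrolysis (50 uM final) by 2 nM NDM-1 read as 300 nm absorbance after 30 min, following >30 min compound–enzyme preincubation in HEPES pH 7.0 with 1 uM ZnSO4 and 0.01% Tween20.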

Activity % (negative = inhibition), inactive:
CCCn1cc(S(=O)(=O)N[C@H](CC)C2CC(O)C2)cn1 (stereo not given in full) 8.44%
CCc1nc(C)sc1C(=O)N1C[C@@H](C(=O)O)[C@H](c2cccc(OC)c2)C1 -4.45%
CN1C(=O)CC[C@]2(C(=O)N3CCCCC3)CCCC[C@@H]12 2.55%
C=CCN1CCN(C(=O)[C@@H]2Cc3c[nH]c4cccc(c34)[C@H](CC(C)C)N2)CC1 5.03% [at 57.5 µM]
COc1cncc([C@@H](NC(=O)Cc2ccsc2)C2CC(O)C2)c1 (stereo not given in full) -3.61%
Cc1noc2c(NCCc3ccccn3)cc(-c3ccccn3)nc12 20.8% [at 57.5 µM]
O=C(O)c1cc2c(s1)CN(C1CCCC1)C2 5.66%
Cc1ccccc1C(=O)N[C@H]1[C@H](O)[C@H](O)C[C@@H]1c1ccc(N2CCOCC2)nc1 18% [at 57.5 µM]
NS(=O)(=O)c1ccc(C(=O)NC(Cc2ccncc2)C2CC(O)C2)cc1 (stereo not given) -0.861%
COc1cc(NC(=O)CCC2CCCN(Cc3nc(C(C)C)cs3)C2)cc(OC)c1 (stereo not given) -0.0953%
COc1ccc(-c2n[nH]c3c2CC(=O)N(c2ccccc2)C3)cn1 31% [at 57.5 µM]
C[S+](=O)([O-])N1Cc2ccccc2CC2(CCCN(Cc3ccccn3)C2)C1 (stereo not given) 4.7%
C[C@H]1[C@@H]2[C@@H](O)C([C@H](C)C(=O)NC3CCCCC3)CC[C@@]2(C)CC[C@@H]1NC(=O)C1CCCCC1 (stereo not given in full) 1.3%
CN(C)S(=O)(=O)N1CCc2nn(C)c(=O)n2CC1 10.1%
Cc1nc(C)c(C(=O)N2CCCC(COc3ccccc3C(=O)N3CCCC3)C2)s1 (stereo not given) -0.974%
COc1ccc(CN(C)C2CCCN(CCc3ccccc3)C2)c(OC)c1OC (stereo not given) -2.17%
Cn1c(CNC(=O)CC2CCOC3(CCN(S(C)(=O)=O)CC3)C2)nc2ccccc21 (stereo not given) -0.752%
O=C1CC2(CCN(C(=O)c3ccccn3)C2)Nc2ccccc2N1 (stereo not given) -2.18%
CCNC(=O)[C@@H]1C[C@H](NC(=O)c2ccc(=O)n(C)c2)CN1Cc1ccoc1 4.43%
CCn1c(=O)c2ccnn2c2ccc(C(=O)NCc3ccc(N4CCOCC4)cc3)cc21 7.99%
COc1ccccc1NC(=O)N1C[C@@H]2C[C@H](C1)c1c(/C=C/c3ccc(Cl)cc3)ccc(=O)n1C2 6.97%
COc1cccc(N2C(=O)NC(=NC3CCCCC3)C23CCCN(Cc2ccsc2)C3)c1 (stereo not given) -1.22%
COC(=O)CC1CCN(C(=O)C2CC(=O)N(c3n[nH]c4cccc(F)c34)C2)CC1 (stereo not given) 3.61%
C=CCn1cc(CN2CCC(Oc3ccc4ccccc4c3)(C(=O)O)CC2)cn1 -0.276%
Cc1ccc(-c2cccc(CN3C4CCC3CN(C(C)C)C4)c2)c(C)c1 7.9%
Cc1nc2ccc(C(=O)NCc3cc4n(n3)CCN(C(=O)N(C)C)C4)cc2o1 -1.85%
Cc1cc(F)ccc1NC(=O)CCC1CCCN(Cc2cn[nH]c2-c2cccc(F)c2)C1 (stereo not given) -6.26%
O=C(NCc1ccccn1)C1CCN(c2cc(C3CC(O)C3)ncn2)CC1 (stereo not given) 0.243%
CCOC(=O)C1(Cc2ccccc2)CCNCC1 -12.4%
Cc1noc(C)c1S(=O)(=O)N1CCC2(CC1)CC(OCC1CC1)CCO2 (stereo not given) 29.6%
O=C(C1CCCC1)N1Cc2ccccc2CC2(CCCN(Cc3ccccc3)C2)C1 (stereo not given) -6.05%
CCN1CCC2(CCC1=O)CN(Cc1ccc(C)c3ccccc13)CCN2C (stereo not given) -7.37%
COc1ccc(C2(C(=O)N3C[C@@H](Oc4cccnc4)C[C@H]3C(=O)NC3CC3)CC2)cc1 -2.39%
O=C(CCc1ccc2c(c1)CN(C(=O)C1CC1)CCO2)NC1CCS(=O)(=O)C1 (stereo not given) -1.14%
COCCC1(C(=O)O)CCCN(Cc2cn[nH]c2C2CCCCC2)C1 (stereo not given) -0.903%
COc1cccc(-c2ccc(C(=O)NCCN[S+](=O)([O-])c3cccs3)cc2)c1 5.43%
Cc1nc([C@@H]2CN(C(=O)CCc3c(C)noc3C)C[C@H]2C(N)=O)n[nH]1 -2.38%
O=C(N1CCCCCC1CN1CCOCC1)C1(c2ccccc2)CC1 (stereo not given) 12.4%
CN(CCc1ccccn1)[C@H]1[C@@H]2OC[C@@H](O2)[C@@H](NCc2ccc(-c3ccccc3)cc2)[C@@H]1O 4.11%
O=C1CCN(C(=O)C2CCN(C(=O)c3ccc4ccccc4n3)CC2)CCCCCCN1 8.72%
CCOCC(=O)N1CCC(N2C(=O)C3(CCCCC3)C2c2ccccc2)CC1 (stereo not given) -12.7%
Cc1cc(S(=O)(=O)N2CCCC2c2noc(COc3ccc(F)cc3)n2)ccc1F (stereo not given) 1.13%
Cc1noc(C)c1Cc1ccc(C(=O)NC2CCc3nnc(C)n3CC2)o1 (stereo not given) -6.81%
COc1ccccc1-c1cnc2n[nH]c(-c3ccc4c(c3)OCO4)c2n1 3.54% [at 57.5 µM]
O=C1NC2(CCCN(Cc3cncs3)C2)COc2ccccc21 (stereo not given) -0.209%
COc1cccc(NCc2nnc(C(=O)N3CCC[C@@H]3c3cccc(F)c3)n2-c2ccccc2)c1 1.91%
CN1CCOc2c(C(=O)NCCc3cnc[nH]3)cc(-c3ccccc3F)cc21 7.82% [at 57.5 µM]
COCc1cc(=O)n(CC(=O)NCc2ccc(OC)cc2)c(N2CCOCC2)n1 0.0069%
CC(C)CNc1ccc2c(n1)C(C)(C(=O)NCc1cccnc1)CN(Cc1ccccc1)C2 (stereo not given) -0.786%
Cn1nccc1C(=O)N1CCC(c2nc(CCOCC3CCCC3)no2)C1 (stereo not given) 27.1%
COCCN(C)C[C@@H]1CN(C(=O)Cn2ncc3ccccc3c2=O)C[C@@H]1CO 7.38%
Cc1ccccc1NC(=O)N1CCC(N(CCC(C)C)C2CCOCC2)CC1 3.7%
CN(CCc1ccccn1)C(=O)c1cn(Cc2cccc(C(F)(F)F)c2)nn1 0.393%
Nc1cc(C(=O)N2CCc3onc(-c4ccc(-c5ccccc5)cc4)c3C2)[nH]n1 19.3%
CCc1nnc2ccc(NC3CC3)nn12 10.5%
C=CCn1cc(CN(CC)Cc2ccc(OC)cc2)c(C)n1 -3.32%
CCc1noc(-c2cn(C3CCCN(C(=O)COc4cccc(C)c4)C3)nn2)n1 (stereo not given) -4.77%
Cc1cc(C(=O)N[C@H]2[C@H](O)[C@H](O)C[C@@H]2c2ccc(N3CCOCC3)nc2)n(C)n1 17.4% [at 57.5 µM]
CCC(=O)N1CCc2sc(C(=O)NCc3ccc4c(c3)OCO4)cc2C1 11.1%
CC(=O)Nc1cccc(-c2ncc3c(n2)OCCN(CC2CC2)C3=O)c1 23.9% [at 57.5 µM]
O=C1COCCN1C1CCN(Cc2ccc(F)cc2)CC1 -6.53%
COCCOc1cc(=O)n2c(c1C(=O)NCc1ccccc1)CCOCC2 2.55%
CN1CCN(CCCNC(=O)C2CCc3sc(C(=O)N4CCCCCC4)cc3C2)CC1 (stereo not given) 3.23%
CC(C)NC(=O)c1ccccc1OCC1CCCN(Cc2cn(C)c3ccccc23)C1 (stereo not given) 2.17%
CC(C)c1nccn1CCCNC(=O)c1ccc(N2CCCC(CO)C2)nc1 (stereo not given) 17.7%
O=C(c1cnccn1)N1CCC(c2nc(C3CC3)no2)C1 (stereo not given) 5.6%
O=C(Nc1ccc2c(N3CCOCC3)ncnc2c1)c1cccc(Cl)c1 10.7%
COCCc1noc(-c2ccc(N(C)Cc3ccnc(C)c3)nc2)n1 3.53%
O=C(NC[C@H]1OC[C@@H](NC2CCCCC2)[C@@H]1O)N1CCOCC1 0.481% [at 57.5 µM]
CN1CCCCCCN(C(=O)Cc2cccc(F)c2)[C@H]2CCC[C@H]2C1=O -0.368%
COC[C@H]1NC(=O)CC[C@H]1C(=O)NCCC1=CCCCC1 -2.66%
CN(C)C[C@@H]1CN(S(C)(=O)=O)C[C@H]1NC(=O)CC1CCN(C)CC1 -18.1%
CCn1cc(CNc2ccc(-c3ccccc3OC)nn2)cn1 3.91%
CN1C(=O)CC[C@]2(C(=O)NCc3ccco3)CCCC[C@@H]12 73.1%
CCOCCCNC(=O)c1cc2c(=O)[nH]c(-c3ccccc3)cn2n1 65%
COc1cccc(CN2CCC(n3cc[nH]c3=O)CC2)c1 5.24% [at 57.5 µM]
Cc1cc(C(F)(F)F)nc(CCNC(=O)C2NCCc3[nH]cnc32)n1 (stereo not given) 40.1%
O=C1CC(C(=O)Nc2cccc(Cl)c2)n2ncnc2N1 (stereo not given) 0.494%
O=C(COc1ccccc1)N1CCc2nn(Cc3ccccc3)c(=O)n2CC1 2.95%
CN(Cc1cccnc1)C(=O)c1n[nH]c2c1CN(Cc1cccnc1)CC2 -1.01%
O=C(c1ccc2c(c1)N(C(=O)c1ccccc1)CC2)N1CCN(c2ccc(Cl)cc2)CC1 5.37%
CNS(=O)(=O)CCNc1nc(-c2ccccn2)nc2c1c(C)nn2C 1.42%
CCOc1ccccc1CN1CCCOCCNC(=O)[C@@H]2CCCC[C@@H]21 8.41%
Cc1cc(C[C@@H]2COC[C@@H]2NC(=O)c2cnn3cc(CCO)cnc23)on1 23.9%
Cc1ccccc1CNC[C@H]1O[C@@H]2C[C@@H](CC(=O)NCc3nccn3C)O[C@@H]2[C@@H]1O 8.75% [at 57.5 µM]

In the list so far, these have a furan ring, fused or not:
Activity % (negative = inhibition), inactive:
CCNC(=O)[C@@H]1C[C@H](NC(=O)c2ccc(=O)n(C)c2)CN1Cc1ccoc1 4.43%
Cc1noc(C)c1Cc1ccc(C(=O)NC2CCc3nnc(C)n3CC2)o1 (stereo not given) -6.81%
CN1C(=O)CC[C@]2(C(=O)NCc3ccco3)CCCC[C@@H]12 73.1%

For convenience, some entries already given:
Activity % (negative = inhibition), inactive:
O=C1NC2(CCCN(Cc3cncs3)C2)COc2ccccc21 (stereo not given) -0.209%
COc1cccc(NCc2nnc(C(=O)N3CCC[C@@H]3c3cccc(F)c3)n2-c2ccccc2)c1 1.91%
